Values of other authors, collected in US4073931A, “Nitroglycerine inclusion compounds with cyclodextrin and composition containing same” (Teijin Limited, priority 1974, dated 1978).
For at least one compound, name, drawing or mass did not settle the structure.

System: smooth muscle
Details: compared with nitrite ester; Wegria 1951

For `O=[N+]([O-])OCC(CO[N+](=O)[O-])O[N+](=O)[O-]` [nitroglycerine], the “smooth muscle relaxing action and peripheral vasodilating action” value is listed as “the same smooth muscle relaxing action and the peripheral vasodilating action as the nitrite ester”.
